Results: patent US20200390846A1, “PEPTIDE CAPABLE OF IMPROVING COGNITIVE FUNCTION” (THE FOOD SCIENCE INSTITUTE FOUNDATION, priority 2018, published 2020)
Not every detail of the peptide structures is certain; ends, links or a residue may be inferred. Where a SMILES comes first, the peptide text is derived from it.

What was measured:
Format in all cases: in vivo, dd Y mice
[1] = tested on: BDNF mRNA expression in the hippocampus; test: Brain-derived neurotrophic factor (BDNF) mRNA expression measurement test; details: HFD+YLG group, 10 mg/kg/day oral, day 7, RT-PCR, standardized with β-actin mRNA (FIG. 6)
[2] = tested on: BrdU-positive cells in the hippocampal dentate gyrus; test: Hippocampal neurogenesis evaluation test using deoxyuridine bromide (BrdU); details: HFD+YLG group, 10 mg/kg/day oral, day 7, vs HFD and CD groups (FIG. 5)
[3] = tested on: mice fed a 60% high-fat diet (blood glucose level); test: Insulin tolerance test; details: for blood glucose level, relative value (level immediately before insulin administration = 100): HFD + YLG 10 mg/kg/day oral, day 7
[4] = tested on: mice fed a 60% high-fat diet (blood glucose level); test: Glucose tolerance test; details: for blood glucose level, relative value (level immediately before glucose administration = 100): HFD + YLG 10 mg/kg/day oral, day 7
[5] = tested on: mice fed a 60% high-fat diet (spatial memory); test: Spatial memory evaluation test: object location test (OLT); details: HFD+YLG group, 10 mg/kg/day oral for 1 week, day 7, vs HFD and CD groups (FIG. 4)
[6] = tested on: mice fed a 60% high-fat diet (episodic memory); test: Episodic memory evaluation test: object recognition test (ORT); details: HFD+YLG group, 10 mg/kg/day oral for 1 week, day 7, vs HFD and CD groups (FIG. 2)
[7] = HFD+YLG group vs HFD group, 10 mg/kg/day oral

Compound: CC(C)C[C@H](NC(=O)[C@@H](N)Cc1ccc(O)cc1)C(=O)NCC(=O)O [YLG peptide, Tyr-Leu-Gly] (H-Tyr-Leu-Gly-OH)
- BDNF mRNA expression level in the hippocampus [1]: recovered to a level equal to or even greater than that of the normal diet group
- number of BrdU-positive cells in the hippocampal dentate gyrus [2]: recovered to a level equal to that of the normal diet group
- blood glucose level, relative value (level immediately before insulin administration = 100) ([3]; 15 min after insulin 0.5 U/kg i.p.): 90 ± 2
- blood glucose level, relative value (level immediately before insulin administration = 100) ([3]; 30 min after insulin 0.5 U/kg i.p.): 78 ± 3
- blood glucose level, relative value (level immediately before insulin administration = 100) ([3]; 60 min after insulin 0.5 U/kg i.p.): 70 ± 4
- effect on insulin resistance induced by the high-fat diet (glucose and insulin tolerance tests overall, in words) [3, 7]: improved insulin resistance induced by the high-fat diet
- blood glucose level, relative value (level immediately before glucose administration = 100) ([4]; 15 min after glucose 2 g/kg p.o.): 190 ± 14
- blood glucose level, relative value (level immediately before glucose administration = 100) ([4]; 30 min after glucose 2 g/kg p.o.): 169 ± 10
- blood glucose level, relative value (level immediately before glucose administration = 100) ([4]; 60 min after glucose 2 g/kg p.o.): 113 ± 5
- effect on the increase in blood glucose level caused by high-fat diet intake (glucose tolerance test, in words) [4, 7]: prevented the increase in blood glucose level
- ratio of the approach time for the object placed at the novel location to the total approach time for both objects (OLT) [5]: recovered to a level equal to that of the normal diet group
- ratio of the approach time for the novel object to the total approach time for both objects (ORT) [6]: recovered to a level equal to that of the normal diet group
